Values of other authors as cited in patent US11701355B2, “Levosimendan for treating pulmonary hypertension with heart failure with preserved ejection fraction (PH-HFpEF)” (Tenax Therapeutics, Inc., priority 2019, dated 2023).
Some entries share one result that the patent states for a list of compounds.

Tested on: phosphodiesterase-3 (PDE3)
Conditions: in vitro, classical PDE inhibitors; cited from earlier work

Cc1[nH]c(=O)c(C#N)cc1-c1ccncc1 [milrinone]
selectivity PDE3 vs. PDE4: ≥ 17 fold
